Measured values published in patent US20210009685A1 (ALTEOGEN, published 2021).
These are yes or no findings as the source states them, for the method shown. Some entries that bind do so weakly or less than the wild type.

The chains behind the UniProt entries cited, without tags or fusion partners. Residues count along the entry.
UniProt P15328, residues 25-234: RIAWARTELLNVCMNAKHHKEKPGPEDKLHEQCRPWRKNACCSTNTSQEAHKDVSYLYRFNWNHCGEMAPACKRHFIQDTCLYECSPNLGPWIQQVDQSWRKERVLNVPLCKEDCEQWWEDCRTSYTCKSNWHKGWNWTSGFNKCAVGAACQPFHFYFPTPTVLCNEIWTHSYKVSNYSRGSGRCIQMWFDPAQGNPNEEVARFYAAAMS

Target: T1, FOLR1-Fc (UniProt P15328 25-234, limits assumed)
T1 construct: also called FOLR1 (ELISA coating); not shown: Fc part
Experiment: ELISA, FOLR1-Fc coated
Experimental: For the purpose of comparing the binding affinities of the primarily selected clones with each other, ELISA was performed at different clone concentrations in the following manner. 25 μL of FOLR1 was added to each well of a 96-well plate at a concentration of 1 μg/mL, coated on the plate at room temperature for 1 hour, and then blocked with 180 μL of 3% skim milk at room temperature for 1 hour. During blocking, samples to be used as primary antibodies were prepared. As primary antibodies, samples selected by screening were used. The samples were diluted to a concentration of 0.1 to 100 nM (0, 0.1, 0.3, 1, 3, 10, 30, and 100 nM) and cold-stored until use. After blocking, 3% skim milk was removed, and 25 μL of the primary antibody was added to each well and allowed to react at room temperature for 1 hour or more. After completion of the reaction, each well was washed three times with PBS-Tween20 (0.1%) buffer. As a secondary antibody, HA-HRP was diluted 3,000-fold with 3% skim milk, and 25 μL of the dilution was added to each well and allowed to react at room temperature for 1 hour or more. After completion of the reaction, each well was washed three times with PBS-Tween20 (0.1%), and 25 μL of substrate TMB was added to each well to confirm color development. After about 5 minutes, 25 μL of 1 M H₂SO₄ was added to each well to stop the reaction, and the absorbance at a wavelength of 450 nm was measured. From the measurement results, the EC (Effector concentration) value was calculated using the GraphPad Prism 7 program.
The measured values are obtained in different experiments for comparison with the parent antibody.

binding | Binder
binds | Modified antibody vAb4 (antibody, V domains shown, Carries modified CDR-L2) VH: EVQLVESGGGVVQPGRSLRLSCSASGFTFSGYGLSWVRQAPGKGLEWVAMISSGGSYTYYADSVKGRFAISRDNAKNTLFLQMDSLRPEDTGVYFCARHGDDPAWFAYWGQGTPVTVSS VL: DIQLTQSPSSLSASVGDRVTITCSVSSSISSNNLHWYQQKPGKAPKPWIYGTSSRASGVPSRFSGSGSGTDYTFTISSLQPEDIATYYCQQWSSYPYMYTFGQGTKVEIK
binds | Modified antibody vAb2 (antibody, V domains shown, Carries modified CDR-L1 and CDR-L2) VH: EVQLVESGGGVVQPGRSLRLSCSASGFTFSGYGLSWVRQAPGKGLEWVAMISSGGSYTYYADSVKGRFAISRDNAKNTLFLQMDSLRPEDTGVYFCARHGDDPAWFAYWGQGTPVTVSS VL: DIQLTQSPSSLSASVGDRVTITCSASSGLSSSYLHWYQQKPGKAPKPWIYGTSSRASGVPSRFSGSGSGTDYTFTISSLQPEDIATYYCQQWSSYPYMYTFGQGTKVEIK
binds | Modified antibody vAb5 (antibody, V domains shown, Carries modified CDR-H3) VH: EVQLVESGGGVVQPGRSLRLSCSASGFTFSGYGLSWVRQAPGKGLEWVAMISSGGSYTYYADSVKGRFAISRDNAKNTLFLQMDSLRPEDTGVYFCARHGDDVAWFAYWGQGTPVTVSS VL: DIQLTQSPSSLSASVGDRVTITCSVSSSISSNNLHWYQQKPGKAPKPWIYGTSNLASGVPSRFSGSGSGTDYTFTISSLQPEDIATYYCQQWSSYPYMYTFGQGTKVEIK
binds | Modified antibody vAb1 (antibody, V domains shown, Carries modified CDR-H3, CDR-L1 and CDR-L2) VH: EVQLVESGGGVVQPGRSLRLSCSASGFTFSGYGLSWVRQAPGKGLEWVAMISSGGSYTYYADSVKGRFAISRDNAKNTLFLQMDSLRPEDTGVYFCARHGDDVAWFAYWGQGTPVTVSS VL: DIQLTQSPSSLSASVGDRVTITCSASSGLSSSYLHWYQQKPGKAPKPWIYGTSSRASGVPSRFSGSGSGTDYTFTISSLQPEDIATYYCQQWSSYPYMYTFGQGTKVEIK
binds | Modified antibody vAb3 (antibody, V domains shown, Carries modified CDR-L1) VH: EVQLVESGGGVVQPGRSLRLSCSASGFTFSGYGLSWVRQAPGKGLEWVAMISSGGSYTYYADSVKGRFAISRDNAKNTLFLQMDSLRPEDTGVYFCARHGDDPAWFAYWGQGTPVTVSS VL: DIQLTQSPSSLSASVGDRVTITCSASSGLSSSYLHWYQQKPGKAPKPWIYGTSNLASGVPSRFSGSGSGTDYTFTISSLQPEDIATYYCQQWSSYPYMYTFGQGTKVEIK

Target: T1, FOLR1-Fc
Experiment: ELISA, FOLR1-Fc coated on the plate, antibody titrated

binding | Binder
binds | Parent antibody (anti-FOLR1 antibody of US2005/0232919 A1) (antibody, V domains shown, also called WT) VH: EVQLVESGGGVVQPGRSLRLSCSASGFTFSGYGLSWVRQAPGKGLEWVAMISSGGSYTYYADSVKGRFAISRDNAKNTLFLQMDSLRPEDTGVYFCARHGDDPAWFAYWGQGTPVTVSS VL: DIQLTQSPSSLSASVGDRVTITCSVSSSISSNNLHWYQQKPGKAPKPWIYGTSNLASGVPSRFSGSGSGTDYTFTISSLQPEDIATYYCQQWSSYPYMYTFGQGTKVEIK
binds | Modified antibody vAb1 (antibody, V domains shown, Carries modified CDR-H3, CDR-L1 and CDR-L2) VH: EVQLVESGGGVVQPGRSLRLSCSASGFTFSGYGLSWVRQAPGKGLEWVAMISSGGSYTYYADSVKGRFAISRDNAKNTLFLQMDSLRPEDTGVYFCARHGDDVAWFAYWGQGTPVTVSS VL: DIQLTQSPSSLSASVGDRVTITCSASSGLSSSYLHWYQQKPGKAPKPWIYGTSSRASGVPSRFSGSGSGTDYTFTISSLQPEDIATYYCQQWSSYPYMYTFGQGTKVEIK

Target: T2, Folate receptor alpha (FOLR1) (human, UniProt P15328 25-234, limits assumed)
T2 construct: Antigen printed simply as FOLR1 for the panning, the clone ELISA and the SPR chip; also called human FOLR1; folate receptor-α
Experiment: screening ELISA of panned phage library clones on FOLR1

binding | Binder
binds | CDR-H3 library clones B4, B8, C4, C6, C10, G5 (Fab, V domains shown) VH: EVQLVESGGGVVQPGRSLRLSCSASGFTFSGYGLSWVRQAPGKGLEWVAMISSGGSYTYYADSVKGRFAISRDNAKNTLFLQMDSLRPEDTGVYFCARHGDDVAWFAYWGQGTPVTVSS VL: DIQLTQSPSSLSASVGDRVTITCSVSSSISSNNLHWYQQKPGKAPKPWIYGTSNLASGVPSRFSGSGSGTDYTFTISSLQPEDIATYYCQQWSSYPYMYTFGQGTKVEIK
binds | CDR-H3 library clone C8 (Fab, V domains shown) VH: EVQLVESGGGVVQPGRSLRLSCSASGFTFSGYGLSWVRQAPGKGLEWVAMISSGGSYTYYADSVKGRFAISRDNAKNTLFLQMDSLRPEDTGVYFCARHGDDIAWFAYWGQGTPVTVSS VL: DIQLTQSPSSLSASVGDRVTITCSVSSSISSNNLHWYQQKPGKAPKPWIYGTSNLASGVPSRFSGSGSGTDYTFTISSLQPEDIATYYCQQWSSYPYMYTFGQGTKVEIK
